The other results are listed elsewhere or left out. The main result of the screen is listed elsewhere. These columns were measured beside it and carry no call. Most of these compounds were active or inconclusive in the main read-out, so they are no random draw. The note in brackets gives the kind of curve behind each potency; many fits are weak.
Test: qHTS Assay for Lipid Storage Modulators in Drosophila S3 Cells;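 on cell number change: cells counted by Cell Tracker Red CMTPX staining in the red channel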
Settings: BODIPY lipid droplet fluorescence, 18-24 h; for cell number change: measured here: cell count max response, cells fed with added oleic acid
In short: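 Drosophila S3 cells loaded with oleic acid (400 uM, as added) and compounds at several concentrations; lipid droplets imaged by 488-nm laser-scanning cytometry, 500–530 nm intensity and object ratio to cell channel. Percent activity normalized to 20 uM Triacsin C.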

[1] = measured here: lipid fluorescence (Fed channel) AC50, cells fed with added oleic acid
[2] = measured here: cell number channel AC50, cells fed with added oleic acid

Cc1ccc(-n2c(O)c(C=Nc3ccccc3-c3n[nH]c(=S)[nH]c3=O)c3ccccc3c2=O)cc1C
cell number change: -2.52%

CC(NS(=O)(=O)c1ccc2c(c1)oc(=O)n2C)c1ccccc1 (stereo not given)
cell number change: 16.2%
AC50 [1]: 29.1 µM [rising, single point]

O=C(NCc1cccs1)c1cc(-c2cccc(Cl)c2)on1
cell number change: -2.57%
AC50 [1]: 1.84 µM [rising, full curve, poor fit]

CC(Sc1nnnn1C)C(=O)Nc1ncc(Cl)cc1Cl (stereo not given)
cell number change: -1.83%
AC50 [1]: 16.4 µM [falling, partial curve]

CC(/C=C/c1ccc(N(C)C)cc1)=N/N=C1/NC(=O)CC(C(=O)Nc2ccc(Cl)cc2)S1 (stereo not given)
cell number change: -6.34%
AC50 [1]: 18.4 µM [rising, single point]

Cc1ccc(S(=O)(=O)c2cccc(S(=O)(=O)N3CCCC3)c2)cc1S(=O)(=O)N1CCCC1
cell number change: 4.29%
AC50 [2]: 0.411 µM [falling, single point]
AC50 [1]: 0.206 µM [falling, full curve]

CC(Sc1n[nH]c(=O)[nH]c1=O)C(=O)OCc1ccccc1 (stereo not given)
cell number change: 4.89%
AC50 [1]: 6.51 µM [falling, single point]

Cn1nc(C(=O)NNC(=O)COc2ccccc2)c2ccccc2c1=O
AC50 [1]: 16.4 µM [rising, partial curve]

c1ccc(CCc2ccccc2-c2nc(-c3ccccn3)no2)cc1
AC50 [2]: 1.16 µM [rising, partial curve]
AC50 [1]: 1.46 µM [rising, partial curve]

O=C(Cc1ccccc1)Nc1ccccc1N1CCCC1
cell number change: 16.2%

COCCn1c(N)c(Sc2ccc(Cl)cc2)c(=O)[nH]c1=O
cell number change: -10.5%
AC50 [1]: 6.51 µM [falling, single point]

CC(Oc1ccc(Br)cc1)C(=O)NCC(c1ccco1)N1CCCCC1 (stereo not given)
cell number change: 26.5%

OC(CNCC1CCCO1)Cn1c2ccc(Br)cc2c2cc(Br)ccc21 (stereo not given)
cell number change: -79.1%
AC50 [2]: 25.9 µM [falling, single point]
AC50 [1]: 29.1 µM [falling, single point]

COC(=O)[C@H](CC(C)C)NC(=O)NCc1ccc(Cl)cc1
cell number change: 12.2%

CC(=O)Nc1ccc(S(=O)(=O)NCCCc2ccccc2)cc1
cell number change: 12.9%
AC50 [1]: 3.26 µM [rising, single point]

O=C(OCC(=O)N1CCCCC1)c1c[nH]c(=O)[nH]c1=O
cell number change: -27.8%
AC50 [1]: 0.291 µM [falling, full curve]

CCOc1cc(N2CCOCC2)c(OCC)cc1NC(=O)c1nc2nc(C)cc(C)n2n1
cell number change: 19%
AC50 [1]: 0.146 µM [rising, full curve, poor fit]

CCOc1ccc(Cl)cc1CNCCNCCO
cell number change: -14.9%

Cc1cc(Br)ccc1SCC(=O)NCC(c1ccco1)N1CCCCC1 (stereo not given)
cell number change: 42.7%
AC50 [2]: 16.4 µM [rising, single point]

Cc1cc(C)n(CC(=O)N2N=C(C(F)F)CC2(O)C(F)F)n1 (stereo not given)
AC50 [2]: 3.66 µM [rising, partial curve, poor fit]
AC50 [1]: 6.51 µM [rising, single point]

CC(=O)Oc1cccc(C(=O)Nc2cccc(C(=O)Nc3ccccc3C(=O)O)c2)c1
cell number change: 11%

Cc1cc(Nc2ccccc2)nn1C(=O)c1ccc(Cl)cc1
cell number change: 53.5%
AC50 [2]: 7.31 µM [rising, partial curve]

COc1ccc(/C(O)=C2\C(=O)C(=O)N(CCCN(C)C)C2c2ccccc2F)cc1Cl (stereo not given)
cell number change: 3.36%
AC50 [1]: 0.116 µM [falling, full curve, poor fit]

CCO[C@@H]1OC(C(=O)NCc2ccccc2)=C[C@H](C2CCCCC2)[C@H]1CCCO
cell number change: -10.3%
AC50 [1]: 6.51 µM [rising, single point]

O=C(COC(=O)c1ccc2c(c1)C(=O)N(Cc1ccncc1)C2=O)Nc1cccc2ccccc12
cell number change: -3.18%

O=C(Nc1ccc(S(=O)(=O)NCc2ccco2)cc1)c1ccc(F)cc1
cell number change: 5.56%

Nn1c(SCc2ccccc2)nc2ccccc21
AC50 [1]: 29.1 µM [falling, single point]

COc1cccc(-c2cc(C(=O)NCC3CCCO3)on2)c1 (stereo not given)
cell number change: 15%
AC50 [2]: 5.8 µM [rising, single point]

Cc1cc2cc(CN(Cc3cccs3)Cc3nnnn3CC3CCCO3)c(=O)[nH]c2cc1C (stereo not given)
cell number change: 17.1%
AC50 [2]: 1.46 µM [rising, partial curve, poor fit]

Cc1ccc(NC(=O)n2ccc(-c3ccc(-n4ccnc4)cc3)n2)cc1
AC50 [2]: 0.58 µM [rising, single point]
AC50 [1]: 0.58 µM [rising, single point]

CCCC(C(=O)NC1CCCC1)N(Cc1ccc2c(c1)OCO2)C(=O)c1snc(C(N)=O)c1N (stereo not given)
AC50 [1]: 0.291 µM [rising, partial curve, poor fit]

Brc1ccccc1OCCOc1cccc2cccnc12
cell number change: 17.2%
AC50 [1]: 2.31 µM [falling, partial curve, poor fit]

COc1ccc(CCN2CC(C(=O)N(C)Cc3ccc4nsnc4c3)CCC2=O)cc1 (stereo not given)
cell number change: 11.4%

O=C(/C=C/c1ccccc1Cl)Nc1ccc(S(=O)(=O)Nc2ncccn2)cc1
cell number change: 39.1%
AC50 [2]: 0.00461 µM [rising, full curve, poor fit]
AC50 [1]: 0.00461 µM [rising, full curve, poor fit]

COc1ccc(C2CC(c3ccc4ccccc4c3OC(C)=O)=NN2C(=O)/C=C/c2ccccc2)cc1 (stereo not given)
AC50 [1]: 5.17 µM [falling, partial curve]

COc1ccc(-c2cc(C(=O)N3CCN(C(c4ccccc4)c4ccccc4)CC3)no2)cc1OC
cell number change: -9.38%
AC50 [2]: 0.116 µM [falling, full curve, poor fit]
AC50 [1]: 0.116 µM [falling, full curve, poor fit]

Cc1c(NC(=O)C(C)C)cccc1-c1nc2ncccc2o1
cell number change: -6.08%

CN(C)c1nc(C(N)=O)nc(N2CCOCC2)n1
cell number change: -2.08%
AC50 [2]: 0.731 µM [falling, full curve]
AC50 [1]: 6.51 µM [falling, single point]

O=C(NC(Cc1ccccc1)C(=O)O)c1ccc(S(=O)(=O)N2CCCCC2)cc1 (stereo not given)
cell number change: -101%
AC50 [2]: 23.1 µM [falling, partial curve]
AC50 [1]: 16.4 µM [falling, single point]

Source: PubChem BioAssay AID2685 (National Center for Advancing Translational Sciences (NCATS), 2010)
